For 3 molecules, binding results are on record in patent US20140378537A1 (Genentech, published 2014).

These are yes or no findings as the source states them, for the method shown. Some binding calls cover weakened binding; strength is not graded here.

For experiment [1], the target named is T1, murine BATF (murine), O35284.
T1 chain: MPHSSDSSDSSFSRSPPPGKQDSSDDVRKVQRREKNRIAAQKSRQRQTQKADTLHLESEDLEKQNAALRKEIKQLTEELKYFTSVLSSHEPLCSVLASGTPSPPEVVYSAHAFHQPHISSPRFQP
Briefly: EMSA, 293T nuclear extracts, AICE probes (heterodimer on DNA). The settings on record: remark: other sources report otherwise.

Experiment [2] concerns the target T2, BATF/JunB heterodimer (murine, UniProt O35284 1-125; P09450 1-344).
T2 construct: Formed by mixing 293T nuclear extracts, or endogenous in Th17 nuclear extracts; also called BATF/JunB complex
T2 sequence (looked up) 1: T1 chain
T2 sequence (looked up) 2: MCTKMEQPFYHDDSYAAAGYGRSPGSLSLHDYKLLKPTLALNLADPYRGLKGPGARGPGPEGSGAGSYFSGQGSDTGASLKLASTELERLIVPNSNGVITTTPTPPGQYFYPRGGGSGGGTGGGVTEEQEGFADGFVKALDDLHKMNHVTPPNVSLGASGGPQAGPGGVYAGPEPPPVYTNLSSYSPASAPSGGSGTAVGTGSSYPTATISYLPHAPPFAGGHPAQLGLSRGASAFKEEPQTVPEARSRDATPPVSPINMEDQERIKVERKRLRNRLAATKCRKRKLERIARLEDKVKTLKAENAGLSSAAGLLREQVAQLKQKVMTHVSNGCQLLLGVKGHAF
Briefly: EMSA, 293T nuclear extracts, AICE probes. The source says: (a-d) EMSAs using the Bcl11b probe and 293T nuclear extracts as a source of indicated proteins (a) c-Jun, BATF, IRF-4, (b) FosL2, JunB, IRF-4, (c) JunB, BATF, IRF-8 or (d) JunB, BATF, IRF-3 (e) EMSA using an ISRE containing probe and IRF-3 or IRF-4. Complexes were supershifted with indicated antibodies. Red and green arrows mark the ternary and quaternary protein-DNA complexes, respectively as in FIG. 1d. Data are representative of at least two independent experiments. (f-h) Th0 cells and Th2 cells differentiated in vitro (42 hours) and LPS-activated dendritic cells (6 hours) were subjected to chromatin crosslinking and immunoprecipitation with antibodies directed against IRF-4. Immunoprecipitated chromatin was deep sequenced and analyzed as in FIG. 3a.
Nuclear extracts were prepared from 293T cells (2×107), 48 hours after their transfection or from Th17 cells (8×107), 42 hours after their activation and differentiation. […]

Experiment [3] deals with T3, murine JunB (murine, UniProt P09450 1-344).
T3 construct: AP-1 family transcription factor, used as nuclear extract
T3 sequence (looked up): T2 sequence (looked up) 2
Briefly: EMSA, 293T nuclear extracts, AICE probes (heterodimer on DNA). In general terms: In EMSA bound probe runs differently from free probe, usually more slowly.

B1: murine c-Jun, P05627 1-334 (protein, UniProt P05627 1-334, looked up)
chain: MTAKMETTFYDDALNASFLQSESGAYGYSNPKILKQSMTLNLADPVGSLKPHLRAKNSDLLTSPDVGLLKLASPELERLIIQSSNGHITTTPTPTQFLCPKNVTDEQEGFAEGFVRALAELHSQNTLPSVTSAAQPVSGAGMVAPAVASVAGAGGGGGYSASLHSEPPVYANLSNFNPGALSSGGGAPSYGAAGLAFPSQPQQQQQPPQPPHHLPQQIPVQHPRLQALKEEPQTVPEMPGETPPLSPIDMESQERIKAERKRMRNRIAASKCRKRKLERIARLEEKVKTLKAQNSELASTANMLREQVAQLKQKVMNHVNSGCQLMLTQQLQTF
Regarding B1, in experiment [1], the binding result is “binds”.

B2: DBD of IRF-4 (protein)
chain: NGKLRQWLIDQIDSGKYPGLVWENEEKSVFRIPWKHAGKQDYNREEDAALFKAWALFKGKFREGIDKPDPPTWKTRLRCALNKSNDFEELVERSQLDISDPYKVYRIVPEGAKKGAKQL
B2: the binding result in experiment [2] is reported as “binds”.

B3: murine FosL2 (protein, UniProt P47930 1-326, looked up)
chain: MYQDYPGNFDTSSRGSSGSPAHAESYSSGGGGQQKFRVDMPGSGSAFIPTINAITTSQDLQWMVQPTVITSMSNPYPRSHPYSPLPGLASVPGHMALPRPGVIKTIGTTVGRRRRDEQLSPEEEEKRRIRRERNKLAAAKCRNRRRELTEKLQAETEELEEEKSGLQKEIAELQKEKEKLEFMLVAHGPVCKISPEERRSPPTSGLQSLRGTGSAVGPVVVKQEPPEEDSPSSSAGMDKTQRSVIKPISIAGGGFYGEEPLHTPIVVTSTPAITPGTSNLVFTYPNVLEQESPSSPSESCSKAHRRSSSSGDQSSDSLNSPTLLAL
As to B3, the binding result in experiment [3] is recorded as “binds”.
